Some peptides are written in HELM: one residue between dots, names in brackets for other building blocks, links after the first $.

This note sets out measurements from US20240400638A1 (River 2 Renal Corp., priority 2021, published 2024).

The nature of the series: general procedure: Fmoc solid-phase peptide synthesis; Rink amide AM resin (low loading 0.47 mmol/g; Novabiochem or ChemImpex); DIC 0.5M/Oxyma 1M in DMF. As to conditions: whole synthesis, trifluoroacetate salt; for final HPLC purity: UV; for final HPLC purity / isolated yield: scale of the general procedure 0.1-0.2 mmol per batch.

For “Ac-L-E-G-R-E-K-V-R-A-K(Ac)-I-Aib-Aib-E-G-K(PEG2DGA-PEG2DGA-PEG.s-ub.2DGA-gE-gE-gE-Palm)-S-T-F-S-Mly-R-A-K(Ac)-NH2”, the “final HPLC purity” value worked out at 99%, the isolated yield stood at 8%, the crude mass is listed as 220 mg and the isolated mass is reported as 37 mg.
Turning to “Ac-L-E-G-R-E-K-V-R-A-K(Ac)-I-Aib-Aib-E-G-K(TTDS-TTDS-TTDS-gE-gE-gE-Stea)-S-T-F-S-Mly-R-A-K(Ac)-NH2”, the “final HPLC purity” value was determined as 98%. Further, the crude mass (scale 0.4 mmol in total) is recorded as 720 mg.
As to “Ac-L-E-G-R-E-K-V-R-A-K(Ac)-I-Aib-Aib-E-G-K(TTDS-TTDS-TTDS-gE-gE-gE-Stea)-S-T-W-S-Aib-R-K-K(Ac)-NH2”, the “final HPLC purity” value is recorded as 99%. The isolated mass (scale 0.1 mmol) came out at 20 mg.
With “Ac-L-E-G-R-E-K-V-R-A-K(Ac)-I-Aib-Aib-E-G-K(TTDS-TTDS-gE-gE-gE-Stea)-S-T-W-S-Aib-R-K-K(Ac)-NH2”, the “final HPLC purity” value came out at 97%, the isolated yield was 8% and the isolated mass amounted to 38 mg.
The matching figures for “PEPTIDE1{[ac].L.E.G.R.E.K.V.R.A.[K(Ac)].I.[Aib].[Aib].E.G.K.S.T.F.S.[Mly].R.A.[K(Ac)].[am]}|PEPTIDE2{[Palm].[gE].[gE].[gE].[TTDS].[TTDS].[TTDS]}$PEPTIDE1,PEPTIDE2,17:R3-7:R2$$$V2.0”: 99%, 17.5% and 428 mg.
